Data as given in paper PMC4612562, “Coronin 2A (CRN5) expression is associated with colorectal adenoma-adenocarcinoma sequence and oncogenic signalling” (BMC Cancer, 2015).
Results are given in words; binding and its absence hold for the method and conditions named. Some entries that bind do so weakly or less than the wild type. Sequences can lack the tags named with a protein.

Sequences of proteins named here, by UniProt entry; tags and fusion partners are left off.
UniProt Q16539: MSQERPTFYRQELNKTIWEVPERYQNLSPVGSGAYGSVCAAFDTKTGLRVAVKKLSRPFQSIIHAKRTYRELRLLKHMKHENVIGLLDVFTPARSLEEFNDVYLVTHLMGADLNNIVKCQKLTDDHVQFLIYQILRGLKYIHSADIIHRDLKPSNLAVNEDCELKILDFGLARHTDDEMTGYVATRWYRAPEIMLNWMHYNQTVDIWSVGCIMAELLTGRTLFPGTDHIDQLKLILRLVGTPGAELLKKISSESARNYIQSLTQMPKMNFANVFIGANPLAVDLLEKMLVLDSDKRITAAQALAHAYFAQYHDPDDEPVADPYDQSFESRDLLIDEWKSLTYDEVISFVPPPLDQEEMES

Key:
[1] = molecular target: T1, GST-CRN5 (coronin 2A) (human) (UniProt Q92828); assay: co-IP; GST-CRN5 held by CRN5 mAb K77-578-1 on Protein G-coated magnetic microbeads (Miltenyi columns), washed; GST-MAPK14 purified from HEK293 cells circulated five times through the columns; washed, eluted with SDS sample buffer; GST pAb immunoblot; both purified
T1 sequence: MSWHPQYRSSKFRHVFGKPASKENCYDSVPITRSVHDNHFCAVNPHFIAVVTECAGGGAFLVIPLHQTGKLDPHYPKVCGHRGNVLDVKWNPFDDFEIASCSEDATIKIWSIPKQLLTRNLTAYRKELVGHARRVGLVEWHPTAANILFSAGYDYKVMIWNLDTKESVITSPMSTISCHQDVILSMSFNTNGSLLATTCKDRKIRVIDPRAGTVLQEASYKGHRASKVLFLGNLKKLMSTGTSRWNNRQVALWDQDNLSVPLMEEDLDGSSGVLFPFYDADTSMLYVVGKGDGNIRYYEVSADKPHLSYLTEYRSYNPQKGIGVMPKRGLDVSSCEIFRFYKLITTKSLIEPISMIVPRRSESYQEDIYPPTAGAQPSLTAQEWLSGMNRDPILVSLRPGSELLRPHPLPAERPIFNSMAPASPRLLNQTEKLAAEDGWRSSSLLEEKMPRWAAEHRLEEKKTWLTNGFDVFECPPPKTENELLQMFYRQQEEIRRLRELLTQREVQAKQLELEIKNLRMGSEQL

[2] = molecular target: T1, GST-CRN5 (coronin 2A) (human); assay: pull-down; GST-CRN5 on glutathione-sepharose beads as bait; TEV-cleaved MAPK14 or purified His6-PRMT5 as prey; 50 mM Tris/HCl pH 8.0, 150 mM NaCl, 0.5 % NP-40; three washes; SDS-PAGE and immunoblot; both purified

binding [1] | binding [2] | Substance
binds |  | GST-MAPK14 purified from HEK293 cells (phosphorylated, active) (from UniProt Q16539 1-360) (enzyme)
 | binds | MAPK14, non-tagged, purified from E. coli (non-phosphorylated, inactive) (from UniProt Q16539 1-360) (enzyme)
